Test results as given in paper PMC6416899.
No constants are given. Whether binding was seen depends on the method and setting. Binding can be weak; no strength is given.

Amino acid sequences for entries named in this document (tags omitted). A change or cut given only in a name is not applied to a line headed by its entry.
UniProt A0A482P071: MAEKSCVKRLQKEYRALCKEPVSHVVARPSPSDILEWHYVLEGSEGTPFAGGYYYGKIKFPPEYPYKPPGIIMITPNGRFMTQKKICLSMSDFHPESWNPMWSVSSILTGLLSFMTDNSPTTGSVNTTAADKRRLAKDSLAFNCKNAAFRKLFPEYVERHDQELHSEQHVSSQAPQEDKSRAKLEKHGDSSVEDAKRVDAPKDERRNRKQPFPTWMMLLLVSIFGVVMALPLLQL

Molecular target: PtoMYB156 fused to Cub (split-ubiquitin bait) (Populus tomentosa)
Experiment: two-hybrid; split-ubiquitin Y2H (DUALhunter), yeast NMY51; bait fused to Cub, prey fused to NubG; growth on synthetic medium lacking Leu, Trp and His and beta-Gal activity

- binding: binds
Substance: full-length PtoUBC34 fused to Nub (split-ubiquitin prey) (from UniProt A0A482P071) (enzyme)
